Experimental data reported in patent US12102612B2, “Pharmaceutical composition comprising hydroquinone derivative for preventing or treating obesity or nonalcoholic steatohepatitis” (BIOTOXTECH CO., LTD., priority 2018, dated 2024).
At least one structure is not confirmed: it was looked up by name or label, or the drawing left a doubt.

System: high-fat diet-fed obesity and NASH model
Experiment: Efficacy in obesity and NASH model fed with high-fat diet (HFD)
Type: in vivo, male C57BL/6 mice
Settings: compared to the negative control, FIG. 19(A)
Procedure: High-fat diet with 60 kcal % (RESEARCH DIETS, Product No: D12492) was fed to 7-week-old male C57BL/6 mice for 16 weeks to induce nonalcoholic fatty liver, followed by repeatedly administering test substances, along with the high-fat diet, via an oral route for 9 weeks from weeks 17 to 25. Alleviative effects on NASH were assessed by clinicopathological and histopathological examinations. […]
During repeatedly oral administration of the test substances for 9 weeks as in the assay method of (1), the mice were observed and recorded for weight gain, food intake, and general symptoms.
Liver tissues were resected from HFD-fed mice and prepared into hematoxylin-eosin (H&E) stained slides, as in the histopathological examination method of Test Example 1. […] (lobular inflammation), and 3) ballooning degeneration of hepatocytes (ballooning) were analyzed and the scores were summed to afford NAFLD activity scores for evaluating therapeutic effects on NASH.

## CC[C@H]1[C@@H](O)[C@@H]2[C@H](CC[C@]3(C)[C@@H]([C@H](C)CCC(=O)O)CC[C@@H]23)[C@@]2(C)CC[C@@H](O)C[C@@H]12 [Obeticholic acid, obeticholic acid]
  blood levels of cholesterol: high suppressive action on cholesterol
